Assay: Organoleptic evaluation: flavor scoring of stored monatin samples
Method: Synthetic R,R-monatin containing approximately 95.4% R,R-monatin monopotassium salt (dry basis) was obtained from CSIR (Modderfontein, South Africa). About 35 mg/L of this monatin was placed in a buffered solution at a pH of about 2.8-3.0 comprising 9 mM citric acid-trisodium citrate in high purity water and preserved with about 150 mg/L sodium benzoate. To some samples 200 ppm SANMELIN™ AO-3000 enzymatically modified isoquercitrin (EMIQ) (San-Ei Gen F.F.I.—Osaka, Japan) was added. Dissolved O2 levels were either increased by bubbling compressed air or reduced by bubbling N2 (99.9% purity) through these samples until the target O2 concentrations were achieved. Dissolved O2 levels were determined at 20° C. using a FOXY fluorescence quenching O2 analyzer from Ocean Optics (Dunedin, Fla.). Samples were stored in clear, glass ampules (˜10 mL) after O2 adjustment and heat-sealed to create an air-tight enclosure. The samples were then either stored in the dark, or exposed to light continuously (24 hours per day) in a light box (˜2200 lux light intensity) configured with a rotating carousel to provide even illumination. The source of light was provided by ultra-violet (UV) light wavelength transmitting bulbs and standard fluorescent bulbs. The heat produced by the lights warmed the samples to a temperature of about 28° C. Duplicate samples of each treatment were analyzed weekly for flavor and aroma by two food scientists trained to detect monatin sensory degradation. The intensity of each parameter was rated on a scale of 0 (bland) to 9 (extreme) and then the average response computed. The results are found in Tables 3A and 3B.

Measured: Flavor Scoring, scale 0 (bland) to 9 (extreme), average

NC(CC(O)(Cc1c[nH]c2ccccc12)C(=O)O)C(=O)O (stereo not shown) [R,R-monatin, 2-hydroxy-2-(indol-3-ylmethyl)-4-aminoglutaric acid]
0.5: 8.3 mg/L O2, 200 ppm EMIQ, Light, 14 d | 8.3 mg/L O2, 200 ppm EMIQ, Light, 21 d | 8.3 mg/L O2, 200 ppm EMIQ, Light, 28 d | <0.5 mg/L O2, 0 ppm EMIQ, Light, 7 d | <0.5 mg/L O2, 0 ppm EMIQ, Light, 28 d | <0.5 mg/L O2, 200 ppm EMIQ, Light, 21 d
1.0: <0.5 mg/L O2, 0 ppm EMIQ, Light, 21 d
4.0: 8.3 mg/L O2, 0 ppm EMIQ, Light, 28 d
3.0: 8.3 mg/L O2, 0 ppm EMIQ, Light, 7 d
0.0: 8.3 mg/L O2, 0 ppm EMIQ, Dark, 0 d | 8.3 mg/L O2, 0 ppm EMIQ, Dark, 7 d | 8.3 mg/L O2, 0 ppm EMIQ, Dark, 14 d | 8.3 mg/L O2, 0 ppm EMIQ, Dark, 21 d | 8.3 mg/L O2, 0 ppm EMIQ, Dark, 28 d | 8.3 mg/L O2, 0 ppm EMIQ, Light, 0 d | 8.3 mg/L O2, 200 ppm EMIQ, Dark, 0 d | 8.3 mg/L O2, 200 ppm EMIQ, Dark, 7 d | 8.3 mg/L O2, 200 ppm EMIQ, Dark, 14 d | 8.3 mg/L O2, 200 ppm EMIQ, Dark, 21 d | 8.3 mg/L O2, 200 ppm EMIQ, Dark, 28 d | 8.3 mg/L O2, 200 ppm EMIQ, Light, 0 d | 8.3 mg/L O2, 200 ppm EMIQ, Light, 7 d | <0.5 mg/L O2, 0 ppm EMIQ, Dark, 0 d | <0.5 mg/L O2, 0 ppm EMIQ, Dark, 7 d | <0.5 mg/L O2, 0 ppm EMIQ, Dark, 14 d | <0.5 mg/L O2, 0 ppm EMIQ, Dark, 21 d | <0.5 mg/L O2, 0 ppm EMIQ, Dark, 28 d | <0.5 mg/L O2, 0 ppm EMIQ, Light, 0 d | <0.5 mg/L O2, 200 ppm EMIQ, Dark, 0 d | <0.5 mg/L O2, 200 ppm EMIQ, Dark, 7 d | <0.5 mg/L O2, 200 ppm EMIQ, Dark, 14 d | <0.5 mg/L O2, 200 ppm EMIQ, Dark, 21 d | <0.5 mg/L O2, 200 ppm EMIQ, Dark, 28 d | <0.5 mg/L O2, 200 ppm EMIQ, Light, 0 d | <0.5 mg/L O2, 200 ppm EMIQ, Light, 7 d | <0.5 mg/L O2, 200 ppm EMIQ, Light, 14 d | <0.5 mg/L O2, 200 ppm EMIQ, Light, 28 d
6.0: 8.3 mg/L O2, 0 ppm EMIQ, Light, 21 d
5.0: 8.3 mg/L O2, 0 ppm EMIQ, Light, 14 d
1.5: <0.5 mg/L O2, 0 ppm EMIQ, Light, 14 d
